Data published in PubChem BioAssay AID540276 (National Center for Advancing Translational Sciences (NCATS), 2011).
About 5,400 (1.8%) of roughly 300,000 compounds were called active. The shares of active, inactive and inconclusive entries below differ from those in the screen. Calls come from the whole dose curve; tested in HEK293 cells. A potency beside an inconclusive call is a rough fit, not a confirmed value.

assay: qHTS for inhibitors of binding or entry into cells for Marburg Virus; settings: Marburg virus pseudotyped entry inhibition, cell reporter; activity change, negative = inhibition: at 37.8 µM (top of the series) unless noted
% is set by controls: 0 for no effect and ±100 for the full control effect; potency is the fitted concentration of half-maximal effect.

Structure (SMILES)	Potency	activity change, negative = inhibition
NC(=O)NC(=O)CN1c2cccc3cccc(c23)S1(=O)=O	inconclusive: 1 µM [inhibitor, full curve, poor fit]	
C/C(O)=c1/cnc2nc3ccccc3n2c1=O		inactive: -12.7% [at 46.1 µM]
CCCCCOCC1CC(C/C(C)=N/NC(N)=S)C(=O)O1 (stereo unspecified)	inconclusive: 35.5 µM [activator, single point]	
COc1ccc(-n2nnnc2C2CCN(S(=O)(=O)c3cc(Cl)ccc3OC)CC2)cc1	inconclusive: 4.47 µM [inhibitor, single point]	
COc1ccc(CNC(=O)COC(=O)c2cccs2)cc1		inactive: -12.8% [at 46.1 µM]
C=CC[N+](C)(C)CCCNC(=O)/C=N\O	inconclusive: 0.731 µM [activator, partial curve, poor fit]	
CCCCCC(=O)Nc1nc2ccccc2[nH]1	inconclusive: 2.91 µM [activator, partial curve, poor fit]	
C/C(CC(=O)Nc1ccc(C)c(Cl)c1)=N\NC(=O)c1ccccn1		inactive: -26.2% [at 46.1 µM]
COc1ccc(Cn2nnnc2CN2CCc3ccccc3C2)cc1	inconclusive: 0.92 µM [inhibitor, partial curve]	
C=CCN(CC=C)C(=S)NC(=O)c1ccc(-c2ccccc2)cc1	inconclusive: 11.2 µM [inhibitor, partial curve, poor fit]	
CSc1ccccc1NC(=O)CN(C)C(=O)C1CCN(C(=O)Nc2ccccc2)CC1		inactive: 2.18% [at 46.1 µM]
O=C(CSc1nc2c(c(=O)[nH]1)CCC2)Nc1cccc(O)c1		inactive: -24.2% [at 46.1 µM]
CN(C)C(/C=C/Nc1ccc(Br)cc1)=C(C#N)C#N		inactive: 5.07% [at 46.1 µM]
COc1cccc(/C=N/NC(=O)N/N=C/c2cccc(OC)c2O)c1O	active: 4.47 µM	
COc1ccccc1/C=C/CN1CCC(Oc2ccc(C(=O)N3CCCCC3)cc2)CC1	inconclusive: 11.2 µM [inhibitor, partial curve, poor fit]	
Cc1cccc(COCC(Cc2ccccc2)N2CCN(C(=O)c3cccc(C)c3)CCC2=O)c1 (stereo unspecified)		inactive: -39.1%
Cc1cccc(N(CC(=O)N2CCN(c3ccccc3F)CC2)S(C)(=O)=O)c1	inconclusive: 4.47 µM [inhibitor, full curve, poor fit]	
CC(=O)c1cc(-c2ccc(F)cc2)n(CCC(=O)Nc2cccc(C)n2)c1C	inconclusive: 12.6 µM [inhibitor, single point]	
CCCCN1C(=O)C(NC(=O)c2ccc(C(C)(C)C)cc2)(C(F)(F)F)C(C(=O)OC)=C1C (stereo unspecified)	inconclusive: 0.891 µM [inhibitor, full curve, poor fit]	
COc1cccc(Nc2nc(-c3cccs3)nc3ccccc23)c1	inconclusive: 18.4 µM [inhibitor, single point]	
COc1ccc(/C=C/c2noc(-c3ccccc3OC(C)=O)n2)cc1	active: 11.2 µM	
Cc1ccccc1C1c2[nH]c3ccccc3c2CCN1CCCn1cccn1 (stereo unspecified)	inconclusive: 10 µM [inhibitor, partial curve, poor fit]	
c1ccc(Nc2cc(-c3ccccc3)nc3ncnn23)cc1	inconclusive: 29.1 µM [inhibitor, single point]	
Cc1c(Cc2ccccc2)c(=O)oc2cc(OC(=O)c3ccccc3)ccc12	inconclusive: 5.01 µM [inhibitor, partial curve, poor fit]	

Structure (SMILES)	Potency	activity change, negative = inhibition
COC(=O)c1sc(N)c(C(=O)OC)c1Cn1ncc(Cl)c(Cl)c1=O	inconclusive: 8.91 µM [inhibitor, partial curve, poor fit]	
CC(C)Cn1c(SC(C)C(=O)Nc2ccc3c(c2)OCCO3)nc2ccccc2c1=O (stereo unspecified)	inconclusive: 29.1 µM [inhibitor, single point]	
CCOc1cc(C2C3=C(CCCC3=O)Nc3ccc4ncccc4c32)ccc1O (stereo unspecified)	inconclusive: 10 µM [inhibitor, partial curve, poor fit]	
Cn1c(Sc2ccc(Cl)cc2)c(C=O)c2ccccc21		inactive: -28.1%
CN(CCCC1CCCC1)C(=O)CCc1nnc(-c2ccccc2)o1	inconclusive: 0.891 µM [activator, full curve, poor fit]	
CC1CC1C(=O)OCC(=O)Nc1cc(S(=O)(=O)N2CCCCC2)ccc1Cl (stereo unspecified)		inactive: 14.7%
Cc1cc(C(=O)NN=C2CC(=O)CC(C)(C)C2)c(C)o1	inconclusive: 2.82 µM [inhibitor, partial curve, poor fit]	
Cc1ccc(C(=O)NCC(C)NC(=O)c2ccc(C)c(C)c2)cc1C (stereo unspecified)		inactive: -7.82% [at 46.1 µM]
O=C(CCC1CCCCC1)NCc1cccs1	inconclusive: 35.5 µM [activator, single point]	
CCCn1cc(C(=O)N(C)C2CCCN(Cc3ccccc3F)C2)c(C)n1 (stereo unspecified)	inconclusive: 8.91 µM [activator, partial curve, poor fit]	
CCOC(=O)C1CCCN(C(=O)c2sc3nc(-c4ccc(OC)cc4)cn3c2C)C1 (stereo unspecified)		inactive: -2.13%
O=C(CNC(=O)c1ccc2c(c1)OCO2)N/N=C(Br)/C=C/c1ccccc1	inconclusive: 4.47 µM [inhibitor, full curve, poor fit]	
CN(c1nc(-c2ccc(Br)cc2)cs1)C1CCS(=O)(=O)C1 (stereo unspecified)	inconclusive: 17.8 µM [inhibitor, single point]	
Cc1ccc(S(=O)(=O)N(C)C)cc1NC(=O)c1cncc(Br)c1	inconclusive: 5.62 µM [inhibitor, full curve, poor fit]	
CCN(CC(=O)NCc1ccc(F)cc1)C(=O)c1cccnc1SC	inconclusive: 35.5 µM [activator, single point]	
Nc1ccc(C(=O)OCc2ccncc2)cc1[N+](=O)[O-]		inactive: -2.31% [at 46.1 µM]
CCc1ccc(C(C)NC(=O)/C(C#N)=C\c2cn[nH]c2-c2ccccc2)cc1 (stereo unspecified)	inconclusive: 25.9 µM [inhibitor, partial curve, poor fit]	
O=C(N/N=C/c1ccc(C(F)(F)F)cc1)c1ccncc1		inactive: -8.59%
N#C/C(=N\Nc1ccccc1Cl)C(=O)c1ccccc1	inconclusive: 1.12 µM [inhibitor, single point]	
c1ccc(-n2cc(CN3CCC(N4CCOCC4)CC3)c(-c3ccc4c(c3)OCO4)n2)cc1	inconclusive: 0.631 µM [inhibitor, full curve, poor fit]	
COc1cc(OC)c(NC(=O)Cc2ccc(OC)c(S(=O)(=O)N3CCOCC3)c2)cc1Cl		inactive: -11.5%
CC(OC(=O)CCC1CCCCC1)C(=O)Nc1ccc(S(N)(=O)=O)cc1 (stereo unspecified)	inconclusive: 5.62 µM [activator, full curve, poor fit]	
COc1ccc(CNC(=O)c2ccc3c(c2)N=C(C)c2c(C)ccc(C)c2S3)cc1	inconclusive: 3.55 µM [inhibitor, single point]	
CCN(c1cccc(C)c1)C1C(=O)c2ccccc2N1C(C)=O (stereo unspecified)	inconclusive: 4.47 µM [activator, partial curve]	

Structure (SMILES)	Potency	activity change, negative = inhibition
O=C(N/N=C/c1ccccc1O)c1cc[n+]([O-])cc1		inactive: 0.743% [at 46.1 µM]
CSc1ncccc1C(=O)OCC(=O)c1cc(C)n(C)c1C	inconclusive: 0.708 µM [activator, partial curve, poor fit]	
C=C1C(=O)OC2C=C(CO)C3OC3C3OC3(C)CC(OC(=O)/C(=C/C)COC(C)=O)C12 (stereo unspecified)	active: 2.51 µM	
CC(C)c1ccc(-c2c(C#N)c(N)nc(SCC(=O)N3CCCCC3)c2C#N)cc1	inconclusive: 5.17 µM [inhibitor, partial curve, poor fit]	
CCCn1c(-c2ccc[nH]c2=O)nc2cc(C)c(C)cc21		inactive: -9.55% [at 46.1 µM]
Cc1ccccc1N1C(=O)CC(N2CCC(C(N)=O)CC2)C1=O (stereo unspecified)		inactive: 7.01%
COc1ccc(OC[C@H]2CN3[C@H](c4ccc(Br)cc4)[C@H](C)CC[C@H]3C(=O)O2)cc1	inactive	
COC(=O)c1ccc(C2CC(=O)Nc3c2c(C)nn3-c2nc(C)cc(C)n2)cc1 (stereo unspecified)		inactive: 19.2% [at 46.1 µM]
N#Cc1c2n(c(=S)n(-c3ccccc3)c1=O)CCCCC2		inactive: 4.41% [at 46.1 µM]
CC(C)CNC(=S)N1CCN(C)CC1		inactive: -2.51%
CCOC(=O)C1(CCc2ccccc2)CCN(Cc2c(O)cccc2OC)CC1	inconclusive: 1.12 µM [inhibitor, full curve, poor fit]	
CCCCn1c(N)c(N(CCOC)C(=O)COC(=O)COc2cccc(C(C)=O)c2)c(=O)[nH]c1=O		inactive: 9.28%
N#Cc1cnc2nc(SCc3ccccc3)nn2c1	inconclusive: 14.1 µM [inhibitor, single point]	
Cc1c(NS(=O)(=O)N2CCCC2)c(=O)n(-c2ccccc2)n1C		inactive: 14.9%
CCOc1ccc2oc(C(=O)N(CC)CC(=O)Nc3ccc(NC(C)=O)cc3)c(C)c2c1	inconclusive: 14.1 µM [inhibitor, single point]	
CC1(C)Cc2c(sc(NC(=O)c3ccccc3Cl)c2C(=O)O)CO1	inconclusive: 2.24 µM [activator, partial curve, poor fit]	
Cc1cc(C(=O)NNc2ccc(F)cc2F)no1	inconclusive: 6.31 µM [inhibitor, single point]	
COc1ccccc1NC(=S)NCCSc1ccc(Cl)cc1	inconclusive: 1.26 µM [inhibitor, single point]	
COc1ccc(OC)c(CCNC(=O)c2ccc(CS(=O)(=O)c3ccc(Br)cc3)o2)c1	inconclusive: 14.1 µM [inhibitor, single point]	
COc1ccc2cc(C#N)c(N3CCN(C(=O)c4ccccc4C)CC3)nc2c1	inconclusive: 22.4 µM [inhibitor, partial curve, poor fit]	
COc1cccc(C(=O)Nc2sc3c(c2C(=O)O)CCCC3)c1	active: 11.2 µM	
O=C(OC1CCOC1=O)c1cncc(Br)c1 (stereo unspecified)		inactive: 6.27%
O=C(Nc1ccc2c(c1)OCO2)c1ccc([N+](=O)[O-])cc1[N+](=O)[O-]		inactive: 16.1% [at 46.1 µM]

Rewritten bar-delimited: four of the compounds above
Structure (SMILES) | Potency | activity change, negative = inhibition
O=C(N/N=C/c1ccccc1O)c1cc[n+]([O-])cc1 |  | inactive: 0.743% [at 46.1 µM]
C=C1C(=O)OC2C=C(CO)C3OC3C3OC3(C)CC(OC(=O)/C(=C/C)COC(C)=O)C12 (stereo unspecified) | active: 2.51 µM | 
CC(C)c1ccc(-c2c(C#N)c(N)nc(SCC(=O)N3CCCCC3)c2C#N)cc1 | inconclusive: 5.17 µM [inhibitor, partial curve, poor fit] | 
N#Cc1cnc2nc(SCc3ccccc3)nn2c1 | inconclusive: 14.1 µM [inhibitor, single point] | 
